The values below come from the supplement of paper PMC8256030.

“And” between values parts separate entries of the source, which are not always exact repeats. Equal entries are not always repeated. Some of the results follow. Single values are uncertain here, since repeats match poorly.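 HEK293T cells were given each compound shortly before transfection with a reporter in which red mCherry is followed by the SARS-CoV-2 frameshift element and then GFP in the −1 frame, so GFP appears only after frameshifting.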

In the first assay the test system is SARS-CoV-2 -1 PRF reporter mCherry-FSE-GFP(-1). In words: mCherry (red) intensity as percent of control; higher = higher upstream reporter expression. Conditions: 10 µM; 24 h; HEK293T.
For `CCC(c1ccccc1)c1noc(CCN(CC)CC)n1` (configuration not stated), the mCherry was 96.5%.
As to `Cn1nnc2c(C(N)=O)ncn2c1=O` [temozolomide], the mCherry is 72.9% and 71%.
`CC[C@H](C)[C@H](N)C1=N[C@H](C(=O)N[C@@H](CC(C)C)C(=O)N[C@H](CCC(=O)O)C(=O)N[C@H](C(=O)N[C@H]2CCCCNC(=O)[C@H](CC(N)=O)NC(=O)[C@@H](CC(=O)O)NC(=O)[C@H](Cc3cnc[nH]3)NC(=O)[C@@H](Cc3ccccc3)NC(=O)[C@H]([C@@H](C)CC)NC(=O)[C@@H](CCCN)NC2=O)[C@@H](C)CC)CS1` gave a mCherry of 70.9%.
In turn, `NNCCc1ccccc1` gave a mCherry of 114%.

The test system is the same in a further assay. In words: percent effect, decrease of GFP/mCherry ratio (-1 PRF reporter) relative to controls; higher = stronger frameshift inhibition. Conditions: 10 µM; 24 h; HEK293T.
With `NS(=O)(=O)c1cc2c(cc1Cl)N=C(CSCc1ccccc1)NS2(=O)=O`, the percent effect was found to be 1.25%.
The same measure, in the same setting: the result for `CCCCC[C@H](O)/C=C/[C@@H]1[C@@H](C/C=C\CCCC(=O)O)[C@@H](O)C[C@H]1O` [Dinoprost Tromethamine] reads -1.46%.
As to `CC[C@]12CCCN3CCc4c(n(c5ccccc45)[C@@](O)(C(=O)OC)C1)[C@@H]32` [vincamine], the percent effect stood at 4.12%.
On the same count and under the same terms, the result for `CCN1CCCC1CNC(=O)c1cc(S(N)(=O)=O)ccc1OC` (configuration not stated) reads -1.87%; that for `Nc1nnnn1-c1ccccc1` [fenamole], -10.7%; that for `CC(=O)O[C@]1(C(C)=O)CC[C@H]2[C@@H]3C=C(Cl)C4=CC(=O)CC[C@]4(C)[C@H]3CC[C@@]21C` [Chlormadinone Acetate], -3.09%.
On the same count and under the same terms, then `O=c1[nH]sc2cc(Cl)ccc12` [ticlatone], with -0.613%; and `CCNC(=O)[C@@H]1CCCN1C(=O)[C@H](CCCNC(=N)N)NC(=O)[C@H](CC(C)C)NC(=O)[C@@H](CC(C)C)NC(=O)[C@H](Cc1ccc(O)cc1)NC(=O)[C@H](CO)NC(=O)[C@H](Cc1c[nH]c2ccccc12)NC(=O)[C@H](Cc1c[nH]cn1)NC(=O)[C@@H]1CCC(=O)N1` [leuprorelin], with -4.21%.
